The list shows a part of the results. The data scatter; read single values as rough.
Assays:
[1] = compound: ClCC(=O)N[C@@H]1CCCc2ccccc12; test: log2 mean competition ratio of IA-DTB cysteine labelling (DMSO/compound) (log2 ratio); higher = stronger cysteine engagement by compound; conditions: treatment time: 4 h, cell line lysate: HEK293T
Protocol: (§1)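 IA-DTB competitive cysteine chemoproteomics in HEK293T RIPA lysate. Lysates were treated with compound 29 or 30 at 50 or 200 µM for 4 h, then IA-DTB (500 µM, 1 h), trypsin-digested, NeutrAvidin-enriched and analysed by diaPASEF. Competition ratio = intensity DMSO / intensity compound (n=4 treated, n=64 DMSO); binding: mean log2 CR ≥ 1 and p ≤ 0.05 plus QC filters. Target is the cysteine site.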

Protein sequences, listed by entry. Tags and fused reporters are not part of them. Lines headed by an entry give the natural chain unless they say otherwise; changes in a name come on top.
UniProt Q9Y296, whole entry, looked up: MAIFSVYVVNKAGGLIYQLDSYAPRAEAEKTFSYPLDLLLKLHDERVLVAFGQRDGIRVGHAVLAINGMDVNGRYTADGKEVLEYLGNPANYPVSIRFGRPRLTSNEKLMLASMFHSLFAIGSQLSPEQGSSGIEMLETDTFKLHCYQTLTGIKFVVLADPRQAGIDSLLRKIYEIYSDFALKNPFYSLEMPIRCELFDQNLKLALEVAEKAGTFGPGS
UniProt Q8TBZ6: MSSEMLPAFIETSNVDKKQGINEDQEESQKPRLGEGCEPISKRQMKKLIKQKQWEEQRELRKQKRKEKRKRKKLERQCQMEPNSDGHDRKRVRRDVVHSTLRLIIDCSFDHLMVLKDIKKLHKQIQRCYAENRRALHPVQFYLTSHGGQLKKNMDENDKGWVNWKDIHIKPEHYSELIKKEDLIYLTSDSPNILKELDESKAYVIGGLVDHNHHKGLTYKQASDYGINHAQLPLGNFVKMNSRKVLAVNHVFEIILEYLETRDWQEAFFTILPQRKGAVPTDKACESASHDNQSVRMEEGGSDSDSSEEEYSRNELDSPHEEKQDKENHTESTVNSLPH
UniProt Q86SZ2: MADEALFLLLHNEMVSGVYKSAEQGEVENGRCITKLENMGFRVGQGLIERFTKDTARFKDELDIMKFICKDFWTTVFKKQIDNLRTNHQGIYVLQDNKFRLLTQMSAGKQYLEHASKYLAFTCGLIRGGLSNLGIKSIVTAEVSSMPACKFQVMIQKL
UniProt Q7Z392: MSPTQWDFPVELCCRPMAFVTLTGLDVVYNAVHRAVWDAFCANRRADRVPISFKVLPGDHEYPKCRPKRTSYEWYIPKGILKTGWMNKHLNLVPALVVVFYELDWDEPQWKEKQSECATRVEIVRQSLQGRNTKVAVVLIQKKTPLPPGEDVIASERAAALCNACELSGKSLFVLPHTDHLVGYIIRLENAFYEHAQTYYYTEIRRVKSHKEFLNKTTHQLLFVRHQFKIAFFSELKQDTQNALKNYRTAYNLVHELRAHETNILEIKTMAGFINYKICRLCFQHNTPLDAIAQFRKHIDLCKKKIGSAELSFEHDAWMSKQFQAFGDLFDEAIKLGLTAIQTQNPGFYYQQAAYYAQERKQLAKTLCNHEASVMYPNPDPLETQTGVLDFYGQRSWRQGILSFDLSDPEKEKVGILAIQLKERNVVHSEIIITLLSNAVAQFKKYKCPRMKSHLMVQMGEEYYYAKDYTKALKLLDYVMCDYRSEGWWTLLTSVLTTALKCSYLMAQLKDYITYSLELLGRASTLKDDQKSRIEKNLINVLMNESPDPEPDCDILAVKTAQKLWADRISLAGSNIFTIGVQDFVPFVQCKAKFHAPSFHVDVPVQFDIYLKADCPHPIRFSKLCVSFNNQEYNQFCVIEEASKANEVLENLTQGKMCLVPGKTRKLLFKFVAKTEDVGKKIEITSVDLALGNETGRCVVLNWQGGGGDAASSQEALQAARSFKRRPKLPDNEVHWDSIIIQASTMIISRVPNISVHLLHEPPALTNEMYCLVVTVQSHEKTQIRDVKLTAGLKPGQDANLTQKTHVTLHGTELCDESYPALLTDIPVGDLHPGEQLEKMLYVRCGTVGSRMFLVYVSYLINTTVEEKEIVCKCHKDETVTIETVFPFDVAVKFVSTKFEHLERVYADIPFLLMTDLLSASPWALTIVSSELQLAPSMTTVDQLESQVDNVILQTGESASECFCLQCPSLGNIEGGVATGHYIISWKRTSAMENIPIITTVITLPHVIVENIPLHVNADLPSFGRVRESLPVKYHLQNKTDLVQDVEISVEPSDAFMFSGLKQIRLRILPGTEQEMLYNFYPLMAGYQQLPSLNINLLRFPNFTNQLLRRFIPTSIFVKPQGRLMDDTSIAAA
UniProt Q14142: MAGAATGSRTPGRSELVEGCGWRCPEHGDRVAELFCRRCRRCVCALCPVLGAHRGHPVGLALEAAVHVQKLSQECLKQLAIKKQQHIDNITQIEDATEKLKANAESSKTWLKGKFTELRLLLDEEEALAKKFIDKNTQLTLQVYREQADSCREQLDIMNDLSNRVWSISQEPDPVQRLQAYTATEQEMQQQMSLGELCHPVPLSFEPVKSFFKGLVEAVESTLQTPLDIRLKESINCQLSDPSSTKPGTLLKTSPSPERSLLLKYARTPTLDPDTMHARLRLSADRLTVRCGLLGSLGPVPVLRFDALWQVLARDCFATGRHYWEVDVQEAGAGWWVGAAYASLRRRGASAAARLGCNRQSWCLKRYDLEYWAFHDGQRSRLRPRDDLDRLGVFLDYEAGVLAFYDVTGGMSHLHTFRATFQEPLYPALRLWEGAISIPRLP
UniProt Q9NV96: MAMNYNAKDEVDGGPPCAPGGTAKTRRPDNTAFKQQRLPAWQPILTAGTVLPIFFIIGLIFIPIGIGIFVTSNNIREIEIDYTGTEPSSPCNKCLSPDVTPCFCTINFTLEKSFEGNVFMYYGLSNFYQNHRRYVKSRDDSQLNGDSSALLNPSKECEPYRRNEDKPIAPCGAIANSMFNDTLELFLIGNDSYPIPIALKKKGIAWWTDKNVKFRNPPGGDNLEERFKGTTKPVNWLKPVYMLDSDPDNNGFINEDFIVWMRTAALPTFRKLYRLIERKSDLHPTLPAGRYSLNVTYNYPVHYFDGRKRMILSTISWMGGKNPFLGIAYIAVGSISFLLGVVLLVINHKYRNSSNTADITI
UniProt Q8TBR7: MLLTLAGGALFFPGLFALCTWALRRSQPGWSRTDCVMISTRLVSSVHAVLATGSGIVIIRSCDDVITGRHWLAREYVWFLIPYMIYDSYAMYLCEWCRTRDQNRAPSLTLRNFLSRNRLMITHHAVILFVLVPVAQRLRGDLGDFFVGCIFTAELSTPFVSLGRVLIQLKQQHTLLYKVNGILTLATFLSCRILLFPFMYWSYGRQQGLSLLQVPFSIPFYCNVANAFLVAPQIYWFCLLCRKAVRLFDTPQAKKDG
UniProt Q9P2C4: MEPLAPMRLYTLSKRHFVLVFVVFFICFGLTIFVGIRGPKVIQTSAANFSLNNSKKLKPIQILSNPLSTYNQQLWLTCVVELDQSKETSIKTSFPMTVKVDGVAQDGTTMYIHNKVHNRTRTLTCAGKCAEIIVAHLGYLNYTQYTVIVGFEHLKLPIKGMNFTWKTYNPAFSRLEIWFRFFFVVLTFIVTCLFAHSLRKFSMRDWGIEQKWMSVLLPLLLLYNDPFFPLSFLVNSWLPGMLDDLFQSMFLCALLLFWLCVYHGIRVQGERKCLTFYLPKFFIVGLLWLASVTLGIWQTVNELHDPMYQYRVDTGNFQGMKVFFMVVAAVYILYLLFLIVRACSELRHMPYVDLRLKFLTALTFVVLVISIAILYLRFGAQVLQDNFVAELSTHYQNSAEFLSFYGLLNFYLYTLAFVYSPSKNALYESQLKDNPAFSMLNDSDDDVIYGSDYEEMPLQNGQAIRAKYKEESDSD
UniProt Q12933: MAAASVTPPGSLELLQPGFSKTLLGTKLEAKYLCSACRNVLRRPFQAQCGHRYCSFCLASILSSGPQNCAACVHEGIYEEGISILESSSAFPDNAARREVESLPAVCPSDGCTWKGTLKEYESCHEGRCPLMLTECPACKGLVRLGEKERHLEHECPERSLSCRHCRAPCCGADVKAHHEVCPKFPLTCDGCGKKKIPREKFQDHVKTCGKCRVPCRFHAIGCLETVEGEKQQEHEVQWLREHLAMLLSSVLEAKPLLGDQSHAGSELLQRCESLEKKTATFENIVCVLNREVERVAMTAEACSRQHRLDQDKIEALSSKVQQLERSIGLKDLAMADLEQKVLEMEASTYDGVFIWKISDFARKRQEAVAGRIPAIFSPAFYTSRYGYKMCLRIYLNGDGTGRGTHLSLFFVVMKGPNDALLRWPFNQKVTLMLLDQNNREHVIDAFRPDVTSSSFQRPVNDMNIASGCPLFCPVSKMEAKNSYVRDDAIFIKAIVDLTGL
UniProt Q96SK2: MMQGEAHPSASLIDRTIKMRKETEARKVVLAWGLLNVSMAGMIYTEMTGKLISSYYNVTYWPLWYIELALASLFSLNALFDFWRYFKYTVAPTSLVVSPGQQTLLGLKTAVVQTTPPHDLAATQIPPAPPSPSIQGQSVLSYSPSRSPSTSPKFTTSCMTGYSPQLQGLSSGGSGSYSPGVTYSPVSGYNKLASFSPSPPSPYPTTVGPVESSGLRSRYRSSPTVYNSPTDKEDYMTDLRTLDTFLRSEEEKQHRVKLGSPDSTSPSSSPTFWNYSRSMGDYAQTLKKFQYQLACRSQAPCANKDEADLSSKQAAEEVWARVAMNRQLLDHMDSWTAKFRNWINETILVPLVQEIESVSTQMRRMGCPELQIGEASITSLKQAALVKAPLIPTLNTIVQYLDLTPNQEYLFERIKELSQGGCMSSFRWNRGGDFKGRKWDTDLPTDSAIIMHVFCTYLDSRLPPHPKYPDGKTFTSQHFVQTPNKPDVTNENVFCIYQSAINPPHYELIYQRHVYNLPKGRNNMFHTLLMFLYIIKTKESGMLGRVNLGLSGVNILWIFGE
UniProt O43734: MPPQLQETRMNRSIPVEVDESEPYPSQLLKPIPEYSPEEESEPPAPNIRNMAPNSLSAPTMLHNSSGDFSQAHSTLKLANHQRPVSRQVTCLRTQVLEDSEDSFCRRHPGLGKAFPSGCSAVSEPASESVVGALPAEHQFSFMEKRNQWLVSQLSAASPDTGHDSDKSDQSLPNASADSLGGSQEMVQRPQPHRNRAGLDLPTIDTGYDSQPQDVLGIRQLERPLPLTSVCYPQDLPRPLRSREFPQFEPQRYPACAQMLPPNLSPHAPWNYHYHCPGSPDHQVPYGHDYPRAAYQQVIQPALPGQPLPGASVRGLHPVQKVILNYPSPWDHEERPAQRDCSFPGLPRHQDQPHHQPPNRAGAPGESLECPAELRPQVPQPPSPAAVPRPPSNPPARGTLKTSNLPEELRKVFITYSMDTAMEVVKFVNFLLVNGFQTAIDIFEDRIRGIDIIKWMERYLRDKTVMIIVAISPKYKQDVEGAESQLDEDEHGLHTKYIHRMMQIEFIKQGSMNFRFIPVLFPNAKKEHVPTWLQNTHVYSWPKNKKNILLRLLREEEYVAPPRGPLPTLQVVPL
UniProt P11388: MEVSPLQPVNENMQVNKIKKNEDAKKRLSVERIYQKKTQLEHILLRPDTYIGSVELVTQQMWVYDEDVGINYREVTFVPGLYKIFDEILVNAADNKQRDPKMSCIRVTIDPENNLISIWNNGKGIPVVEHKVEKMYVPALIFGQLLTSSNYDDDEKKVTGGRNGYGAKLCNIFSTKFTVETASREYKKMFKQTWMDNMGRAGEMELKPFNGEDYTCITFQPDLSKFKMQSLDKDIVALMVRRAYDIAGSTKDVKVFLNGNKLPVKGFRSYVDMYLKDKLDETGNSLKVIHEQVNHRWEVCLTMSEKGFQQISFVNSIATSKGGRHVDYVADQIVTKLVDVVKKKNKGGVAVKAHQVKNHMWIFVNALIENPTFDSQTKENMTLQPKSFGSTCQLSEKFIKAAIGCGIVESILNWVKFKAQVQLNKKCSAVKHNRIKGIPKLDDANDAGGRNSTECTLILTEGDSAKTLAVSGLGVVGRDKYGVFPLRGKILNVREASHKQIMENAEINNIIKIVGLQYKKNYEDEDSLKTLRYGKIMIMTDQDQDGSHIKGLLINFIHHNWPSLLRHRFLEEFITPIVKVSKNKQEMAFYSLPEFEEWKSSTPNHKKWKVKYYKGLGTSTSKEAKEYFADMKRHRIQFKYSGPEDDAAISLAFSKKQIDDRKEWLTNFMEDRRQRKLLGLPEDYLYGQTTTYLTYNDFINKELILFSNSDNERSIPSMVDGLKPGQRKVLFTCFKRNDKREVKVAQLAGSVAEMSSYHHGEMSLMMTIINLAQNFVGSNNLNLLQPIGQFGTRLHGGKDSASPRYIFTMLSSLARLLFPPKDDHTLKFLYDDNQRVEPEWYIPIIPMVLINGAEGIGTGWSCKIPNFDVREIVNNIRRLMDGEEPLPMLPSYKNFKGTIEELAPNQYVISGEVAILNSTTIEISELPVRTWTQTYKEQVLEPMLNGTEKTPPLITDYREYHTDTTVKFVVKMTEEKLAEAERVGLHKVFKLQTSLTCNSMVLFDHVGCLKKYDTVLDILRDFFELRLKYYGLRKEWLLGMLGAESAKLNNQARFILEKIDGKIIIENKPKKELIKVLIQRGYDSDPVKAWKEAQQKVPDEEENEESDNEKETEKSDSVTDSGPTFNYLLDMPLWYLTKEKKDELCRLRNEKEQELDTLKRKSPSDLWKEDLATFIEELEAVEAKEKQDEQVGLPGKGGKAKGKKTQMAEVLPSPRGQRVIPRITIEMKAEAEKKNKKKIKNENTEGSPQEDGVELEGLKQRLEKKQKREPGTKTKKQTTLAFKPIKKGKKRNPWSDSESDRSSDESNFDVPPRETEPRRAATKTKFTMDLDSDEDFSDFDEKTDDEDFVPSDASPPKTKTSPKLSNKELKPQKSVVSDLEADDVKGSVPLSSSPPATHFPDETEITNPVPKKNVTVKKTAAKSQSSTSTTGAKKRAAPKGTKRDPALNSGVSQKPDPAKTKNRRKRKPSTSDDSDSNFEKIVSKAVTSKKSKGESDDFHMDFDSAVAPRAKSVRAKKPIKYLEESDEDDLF

[2] = compound: ClCC(=O)N[C@H]1CCCc2ccccc12; test: as above; conditions: treatment time: 4 h, cell line lysate: HEK293T
Protocol: as §1

Target: TRAPPC4 C195 (UniProt Q9Y296)
- log2 mean competition ratio ([1]; 50 µM): 0.305
- log2 mean competition ratio ([1]; 200 µM): 0.0775
- log2 mean competition ratio ([2]; 50 µM): 0.14
- log2 mean competition ratio ([2]; 200 µM): 0.101

Target: TNPO2 C609 (UniProt O14787)
- log2 mean competition ratio ([1]; 50 µM): 0.0469
- log2 mean competition ratio ([1]; 200 µM): -0.233
- log2 mean competition ratio ([2]; 50 µM): 0.196
- log2 mean competition ratio ([2]; 200 µM): -0.164

Target: TNKS1BP1 C716 (UniProt Q9C0C2)
- log2 mean competition ratio ([1]; 50 µM): 0.173
- log2 mean competition ratio ([1]; 200 µM): -0.00586
- log2 mean competition ratio ([2]; 50 µM): 0.685
- log2 mean competition ratio ([2]; 200 µM): 0.129

Target: TRMT10A C285 (UniProt Q8TBZ6)
- log2 mean competition ratio ([1]; 50 µM): -0.0544
- log2 mean competition ratio ([1]; 200 µM): -0.0556
- log2 mean competition ratio ([2]; 50 µM): -0.179
- log2 mean competition ratio ([2]; 200 µM): 0.0337

Target: TRAPPC6B C149 (UniProt Q86SZ2)
- log2 mean competition ratio ([1]; 50 µM): 0.0243
- log2 mean competition ratio ([1]; 200 µM): 0.225
- log2 mean competition ratio ([2]; 50 µM): -0.0144
- log2 mean competition ratio ([2]; 200 µM): 0.289

Target: TRAPPC11 C481 (UniProt Q7Z392)
- log2 mean competition ratio ([1]; 50 µM): -0.0756
- log2 mean competition ratio ([1]; 200 µM): -0.333
- log2 mean competition ratio ([2]; 50 µM): -0.117
- log2 mean competition ratio ([2]; 200 µM): -0.31

Target: TRMO C312 (UniProt Q9BU70)
- log2 mean competition ratio ([1]; 50 µM): -0.178
- log2 mean competition ratio ([1]; 200 µM): 0.107
- log2 mean competition ratio ([2]; 50 µM): 0.219
- log2 mean competition ratio ([2]; 200 µM): -0.0329

Target: TRIM14 C20 (UniProt Q14142)
- log2 mean competition ratio ([1]; 50 µM): 0.00393
- log2 mean competition ratio ([1]; 200 µM): 0.0962
- log2 mean competition ratio ([2]; 50 µM): -0.139
- log2 mean competition ratio ([2]; 200 µM): 0.0565

Target: TOMM70 C317 (UniProt O94826)
- log2 mean competition ratio ([1]; 50 µM): -0.174
- log2 mean competition ratio ([1]; 200 µM): -0.187
- log2 mean competition ratio ([2]; 50 µM): -0.0658
- log2 mean competition ratio ([2]; 200 µM): -0.0893

Target: TMEM30A C91 (UniProt Q9NV96)
- log2 mean competition ratio ([1]; 50 µM): -0.0891
- log2 mean competition ratio ([1]; 200 µM): 0.399
- log2 mean competition ratio ([2]; 50 µM): -0.122
- log2 mean competition ratio ([2]; 200 µM): -0.103

Target: TOP2B C271 (UniProt Q02880)
- log2 mean competition ratio ([1]; 50 µM): 0.251
- log2 mean competition ratio ([1]; 200 µM): 0.196
- log2 mean competition ratio ([2]; 50 µM): 0.516
- log2 mean competition ratio ([2]; 200 µM): 0.238

Target: TLCD3A C35 (UniProt Q8TBR7)
- log2 mean competition ratio ([1]; 50 µM): 0.192
- log2 mean competition ratio ([1]; 200 µM): 0.19
- log2 mean competition ratio ([2]; 50 µM): 0.0403
- log2 mean competition ratio ([2]; 200 µM): 0.0721

Target: TKFC C404 (UniProt Q3LXA3)
- log2 mean competition ratio ([1]; 50 µM): -0.0782
- log2 mean competition ratio ([1]; 200 µM): 0.0975
- log2 mean competition ratio ([2]; 50 µM): -0.157
- log2 mean competition ratio ([2]; 200 µM): 0.111

Target: TMEM181 C262 (UniProt Q9P2C4)
- log2 mean competition ratio ([1]; 50 µM): 0.135
- log2 mean competition ratio ([1]; 200 µM): -0.0689
- log2 mean competition ratio ([2]; 50 µM): -0.0142
- log2 mean competition ratio ([2]; 200 µM): -0.274

Target: TNKS1BP1 C136 (UniProt Q9C0C2)
- log2 mean competition ratio ([1]; 50 µM): 0.0397
- log2 mean competition ratio ([1]; 200 µM): -0.0175
- log2 mean competition ratio ([2]; 50 µM): 0.278
- log2 mean competition ratio ([2]; 200 µM): 0.00604

Target: TRAF2 C303 (UniProt Q12933)
- log2 mean competition ratio ([1]; 50 µM): -0.0886
- log2 mean competition ratio ([1]; 200 µM): 0.0527
- log2 mean competition ratio ([2]; 50 µM): -0.0301
- log2 mean competition ratio ([2]; 200 µM): -0.0339

Target: TMEM209 C422 (UniProt Q96SK2)
- log2 mean competition ratio ([1]; 50 µM): 0.214
- log2 mean competition ratio ([1]; 200 µM): 0.00633
- log2 mean competition ratio ([2]; 50 µM): 0.203
- log2 mean competition ratio ([2]; 200 µM): 0.0127

Target: TRAF3IP2 C341 (UniProt O43734)
- log2 mean competition ratio ([1]; 50 µM): 0.322
- log2 mean competition ratio ([1]; 200 µM): 0.119
- log2 mean competition ratio ([2]; 50 µM): -0.18
- log2 mean competition ratio ([2]; 200 µM): 0.291

Target: TPT1 C28
- log2 mean competition ratio ([1]; 50 µM): -0.276
- log2 mean competition ratio ([1]; 200 µM): -0.255
- log2 mean competition ratio ([2]; 50 µM): -0.13
- log2 mean competition ratio ([2]; 200 µM): -0.208

Target: TMEM120A C47 (UniProt Q9BXJ8)
- log2 mean competition ratio ([1]; 50 µM): 0.115
- log2 mean competition ratio ([1]; 200 µM): -0.0482
- log2 mean competition ratio ([2]; 50 µM): -0.0546
- log2 mean competition ratio ([2]; 200 µM): 0.0274

Target: TPMT C165 (UniProt P51580)
- log2 mean competition ratio ([1]; 50 µM): 0.117
- log2 mean competition ratio ([1]; 200 µM): -0.534
- log2 mean competition ratio ([2]; 50 µM): -0.0789
- log2 mean competition ratio ([2]; 200 µM): -0.163

Target: TOP2A C392 (UniProt P11388)
- log2 mean competition ratio ([1]; 50 µM): 0.293
- log2 mean competition ratio ([1]; 200 µM): 0.634
- log2 mean competition ratio ([2]; 50 µM): 0.195
- log2 mean competition ratio ([2]; 200 µM): 0.691
